Measured values from patent US7253149B2, “Compounds and methods for modulating cell-adhesion mediated drug resistance” (University of South Florida, priority 2000, dated 2007).
“Also recorded” adds a separate entry of the source.

Test system: FN-adhered myeloma cells
Test: Intracellular drug accumulation assay by flow cytometry
Format: cell-based, human
Details: 10 uM doxorubicin, one hour, after 24 hour on plastic, BSA or FN

## COc1cccc2c1C(=O)c1c(O)c3c(c(O)c1C2=O)C[C@@](O)(C(=O)CO)C[C@@H]3O[C@H]1C[C@H](N)[C@H](O)[C@H](C)O1 [doxorubicin, Doxorubicin]
  intracellular doxorubicin concentration, FN-adhered vs non-adhered: equal to that seen in non-adhered controls; also recorded: unaffected
